Taken from: PubChem BioAssay AID1508597 (Cure First, 2020)
Purpose: 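Genes whose silencing sensitises or protects ovarian cancer cells against rucaparib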 (primary screen). Cells: human ovarian carcinoma lines grown from tumours: OCI-P5x (papillary serous) and OCI-C5x (clear cell). Knock-down reagent: siRNA pool against human genes, 1.25 pmol siRNA per well. Timing: 72 h or 96 h, depending on the cell culture. Treatment: rucaparib 20 µM (about IC30) or vehicle, present until read-out. Rucaparib or vehicle: Vehicle. Cell line: OCI-P5x (serous). Read-out: 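Luminescent ATP-based viability assay read 72 or 96 h after transfection, depending on culture, given as normalised percent viability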. Reading the numbers: viability, normalised: higher = more viable cells remaining. Hit rule: 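Active when normalised viability falls below 80 percent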. Meaning of the calls: active = viability under 80%; inactive = viability 80% or more.
Shown is a random part of the about 2,100 reagents, in one setting of the screen. 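Calls flag viability under 80% in either arm, not effects specific to rucaparib; the reference for percent is not stated.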 A reagent listed more than once was tested more than once; the source does not tell the runs apart. Reagent sequences are not shown. Not given: the 100% reference.

target gene | technical replicate | viability, normalised (%) | outcome
GNPAT (glyceronephosphate O-acyltransferase) | 1 | 52.5 | active
GNPAT (glyceronephosphate O-acyltransferase) | 2 | 58.5 | active
GNPAT (glyceronephosphate O-acyltransferase) | 3 | 64.3 | active
ACIN1 (apoptotic chromatin condensation inducer 1) | 1 | 46.2 | active
ACIN1 (apoptotic chromatin condensation inducer 1) | 2 | 46.9 | active
ACIN1 (apoptotic chromatin condensation inducer 1) | 3 | 55.7 | active
L3MBTL1 (L3MBTL histone methyl-lysine binding protein 1) | 1 | 41.9 | active
L3MBTL1 (L3MBTL histone methyl-lysine binding protein 1) | 2 | 55.6 | active
L3MBTL1 (L3MBTL histone methyl-lysine binding protein 1) | 3 | 49.8 | active
FANCC (FA complementation group C) | 1 | 79 | active
FANCC (FA complementation group C) | 2 | 70.7 | active
FANCC (FA complementation group C) | 3 | 70.5 | active
MSL3 (MSL complex subunit 3) | 1 | 42.6 | active
MSL3 (MSL complex subunit 3) | 2 | 61.5 | active
MSL3 (MSL complex subunit 3) | 3 | 64.7 | active
HIPK2 (homeodomain interacting protein kinase 2) | 1 | 94.7 | inactive
HIPK2 (homeodomain interacting protein kinase 2) | 2 | 72.3 | active
HIPK2 (homeodomain interacting protein kinase 2) | 3 | 88.7 | inactive
CCNE1 (cyclin E1) | 1 | 44.2 | active
CCNE1 (cyclin E1) | 2 | 49.2 | active
CCNE1 (cyclin E1) | 3 | 49.3 | active
DBH (dopamine beta-hydroxylase) | 1 | 52 | active
DBH (dopamine beta-hydroxylase) | 2 | 48.9 | active
DBH (dopamine beta-hydroxylase) | 3 | 64.1 | active
MAPK1 (mitogen-activated protein kinase 1) | 1 | 75.7 | active
MAPK1 (mitogen-activated protein kinase 1) | 2 | 58.5 | active
MAPK1 (mitogen-activated protein kinase 1) | 3 | 70 | active
FNTA (farnesyltransferase, CAAX box, subunit alpha) | 1 | 77.1 | active
FNTA (farnesyltransferase, CAAX box, subunit alpha) | 2 | 76.8 | active
FNTA (farnesyltransferase, CAAX box, subunit alpha) | 3 | 92.9 | inactive
FANCG (FA complementation group G) | 1 | 132 | inactive
FANCG (FA complementation group G) | 2 | 119 | inactive
FANCG (FA complementation group G) | 3 | 120 | inactive
JUNB (JunB proto-oncogene, AP-1 transcription factor subunit) | 1 | 86.2 | inactive
JUNB (JunB proto-oncogene, AP-1 transcription factor subunit) | 2 | 94.2 | inactive
JUNB (JunB proto-oncogene, AP-1 transcription factor subunit) | 3 | 137 | inactive
HMG20A (high mobility group 20A) | 1 | 77.3 | active
HMG20A (high mobility group 20A) | 2 | 94.2 | inactive
HMG20A (high mobility group 20A) | 3 | 95.4 | inactive
KALRN (kalirin RhoGEF kinase) | 1 | 110 | inactive
KALRN (kalirin RhoGEF kinase) | 2 | 103 | inactive
KALRN (kalirin RhoGEF kinase) | 3 | 108 | inactive

A stretch from the list above, for reference:
target gene | technical replicate | viability, normalised (%) | outcome
ACIN1 (apoptotic chromatin condensation inducer 1) | 2 | 46.9 | active
ACIN1 (apoptotic chromatin condensation inducer 1) | 3 | 55.7 | active
L3MBTL1 (L3MBTL histone methyl-lysine binding protein 1) | 1 | 41.9 | active
L3MBTL1 (L3MBTL histone methyl-lysine binding protein 1) | 2 | 55.6 | active
L3MBTL1 (L3MBTL histone methyl-lysine binding protein 1) | 3 | 49.8 | active
FANCC (FA complementation group C) | 1 | 79 | active
FANCC (FA complementation group C) | 2 | 70.7 | active

The list goes on.
target gene | technical replicate | viability, normalised (%) | outcome
JAK2 (Janus kinase 2) | 1 | 76.4 | active
JAK2 (Janus kinase 2) | 1 | 131 | inactive
JAK2 (Janus kinase 2) | 2 | 114 | inactive
JAK2 (Janus kinase 2) | 2 | 78.4 | active
JAK2 (Janus kinase 2) | 3 | 122 | inactive
JAK2 (Janus kinase 2) | 3 | 80.9 | inactive
CHAF1A (chromatin assembly factor 1 subunit A) | 1 | 60 | active
CHAF1A (chromatin assembly factor 1 subunit A) | 1 | 66.8 | active
CHAF1A (chromatin assembly factor 1 subunit A) | 2 | 72.2 | active
CHAF1A (chromatin assembly factor 1 subunit A) | 2 | 67.9 | active
CHAF1A (chromatin assembly factor 1 subunit A) | 3 | 61.5 | active
CHAF1A (chromatin assembly factor 1 subunit A) | 3 | 115 | inactive
BAK1 (BCL2 antagonist/killer 1) | 1 | 66.4 | active
BAK1 (BCL2 antagonist/killer 1) | 2 | 74.3 | active
BAK1 (BCL2 antagonist/killer 1) | 3 | 94.1 | inactive
TONSL (tonsoku like, DNA repair protein) | 1 | 67.1 | active
TONSL (tonsoku like, DNA repair protein) | 2 | 68.6 | active
TONSL (tonsoku like, DNA repair protein) | 3 | 56.2 | active
AK2 (adenylate kinase 2) | 1 | 91.5 | inactive
AK2 (adenylate kinase 2) | 2 | 78.5 | active
AK2 (adenylate kinase 2) | 3 | 83.2 | inactive
WEE2 (WEE2 oocyte meiosis inhibiting kinase) | 1 | 82.5 | inactive
WEE2 (WEE2 oocyte meiosis inhibiting kinase) | 1 | 55.7 | active
WEE2 (WEE2 oocyte meiosis inhibiting kinase) | 2 | 54.9 | active
WEE2 (WEE2 oocyte meiosis inhibiting kinase) | 2 | 94.7 | inactive
WEE2 (WEE2 oocyte meiosis inhibiting kinase) | 3 | 61.2 | active
WEE2 (WEE2 oocyte meiosis inhibiting kinase) | 3 | 91 | inactive
HCK (HCK proto-oncogene, Src family tyrosine kinase) | 1 | 95.8 | inactive
HCK (HCK proto-oncogene, Src family tyrosine kinase) | 1 | 74.6 | active
HCK (HCK proto-oncogene, Src family tyrosine kinase) | 2 | 116 | inactive
HCK (HCK proto-oncogene, Src family tyrosine kinase) | 2 | 62.4 | active
HCK (HCK proto-oncogene, Src family tyrosine kinase) | 3 | 45.2 | active
HCK (HCK proto-oncogene, Src family tyrosine kinase) | 3 | 113 | inactive
